No constants are given. Whether binding was seen depends on the method and setting. Some binding calls cover weakened binding; strength is not graded here.
T1: IL-13Rα2, biotinylated (human) (UniProt Q14627)
T1 sequence (biotinylated (site not stated), looked up): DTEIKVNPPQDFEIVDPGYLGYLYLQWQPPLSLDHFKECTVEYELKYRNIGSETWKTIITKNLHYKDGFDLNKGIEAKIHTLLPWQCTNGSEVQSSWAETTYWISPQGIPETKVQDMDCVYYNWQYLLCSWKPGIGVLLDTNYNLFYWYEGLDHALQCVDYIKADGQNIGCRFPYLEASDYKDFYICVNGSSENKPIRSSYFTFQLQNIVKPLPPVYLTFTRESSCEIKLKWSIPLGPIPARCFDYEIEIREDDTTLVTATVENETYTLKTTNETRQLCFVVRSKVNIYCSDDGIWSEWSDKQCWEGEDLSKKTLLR

B1: IL-13 variant D7 (ligand)
chain: PGPVPPSTAARELIEELFNITQNQKAPLCNGSMVWSINLTAGMYCAALESLINVSGCSAIEKTKRMLSGFCPHKVSAGQFPSLHVKKTRIEVAQFVKDLLIHLRKLFKEGQFNHHHHHH
B2: IL-13 variant DN (ligand)
chain: PGPVPPSTAVRALIEELINITQNQKAPLCNGSMVWSINRTAGMYCAALESLINVSGCSAIEKTQDMLSGFCPHKVSAGQFSSLHVRSSKIEVAQFVKDLLFHLRTLFREGQFNHHHHHH

Assays:
[1] = target: T1, IL-13Rα2, biotinylated (human); experiment: SPR, biotinylated receptor captured on SA chip (FIG. 2A)
[2] = target: T1, IL-13Rα2, biotinylated (human); experiment: SPR (FIG. 5b)

Row | Binder | binding [1] | binding [2]
1 | B1 | binds | 
2 | B2 |  | binds
